Measurements: patent US6753425B2, “Photographic processing composition containing bistriazinyl arylenediamine derivative” (Fuji Photo Film Co., Ltd., priority 2000, dated 2004)
Read-outs that look alike come from different tables or passages of the source.

What was measured:
[1] = Photographic properties in color paper processing: staining by residual sensitizing dyes, ΔDB = DB−DBW, absorbancy at 450 nm
[2] = Photographic properties in processing of color negative film: staining by residual sensitizing dyes, ΔDG = DG−DG0, absorbancy at 540 nm
[3] = Example 3, color negative film N-1, compound in fixing solution
[4] = Example 4, color negative film N-1, compound in color developer, shortened processing 41.0° C. 2 min
[5] = Example 1, color paper P-1, color development 38.5° C. 45 sec, absorbancy at 450 nm
[6] = Example 2, color paper P-1, rapid processing, color development 45.0° C. 15 sec, absorbancy at 450 nm

SMILES | Evaluation of Photographic Properties (ΔDB) [1] | Evaluation of Photographic Properties (ΔDG) [2, 3] | Evaluation of Photographic Properties (ΔDG) [2, 4] | Evaluation of Photographic Properties (ΔDB) [1, 5] | Evaluation of Photographic Properties (ΔDB) [1, 6]
CC(CO)Nc1nc(NCC(O)CO)nc(Nc2cc(Nc3nc(NCC(O)CO)nc(NC(C)CO)n3)cc(S(=O)(=O)[O-])c2)n1.[Na+] (stereo not drawn) [Compound A-23] | 0.006 |  |  |  | 
O=S(=O)([O-])CCNc1nc(NCC(O)CO)nc(Nc2ccc(Nc3nc(NCCS(=O)(=O)[O-])nc(NCC(O)CO)n3)cc2)n1.[Na+].[Na+] (stereo not drawn) [Compound A-2] |  | 0.003 | 0.000 | 0.004 | 0.003
O=S(=O)([O-])CCNc1nc(NCC(O)CO)nc(Nc2cccc(Nc3nc(NCCS(=O)(=O)[O-])nc(NCC(O)CO)n3)c2)n1.[Na+].[Na+] (stereo not drawn) [Compound A-3] |  | 0.004 | 0.003 | 0.003 | 0.003
